In patent publication US8673370B2, “Method of improving cardiovascular health” (.Kemin Foods, L.C., priority 2006, dated 2014):
At least one compound was matched to its structure with a doubt left.

Test system: spontaneously hypertensive (SHR) rats
Test: Mean arterial pressure (MAP), daily for 14 days, in conscious catheterized hypertensive rats
Assay type: in vivo, rat
Settings: vs. SHR-Saff oil controls, p<0.05
Procedure: Additionally, daily soy isoflavone (SoyLife®, Acatris, Minneapolis, Minn.) supplementation was administered with BCX to both normotensive (WKY) and spontaneously hypertensive (SHR) rats to determine any beneficial hemodynamic contributions of soy to genetic hypertension. Animals receiving daily oral doses of BCX or BCX combined with the soy extract and comparisons of specific hemodynamic parameters (heart rate and blood pressure) were monitored for a period of two weeks in SHR rats and their genetically WKY counterparts. Plasma hydrogen peroxide concentrations were evaluated and show the effects of BCX on reactive oxygen species and their purported contribution to elevations in blood pressure in this hypertensive animal paradigm (Wilcox C. S., Reactive oxygen species: roles in blood pressure and kidney function. Curr Hypertens Rep. 2002 April; 4(2):160-6).
1. Three days prior to the beginning of experiments, femoral arterial and venous catheters were implanted for the measurement of blood pressure and heart rate and for the collection of blood samples for the analysis of plasma CRP and cholesterol. Animals were housed in metabolic cages for chronic daily analysis for the remainder of the protocol.
SHR and WKY rats (Harlan, Indianapolis, Ind.) at age 10 weeks and weighing ˜250 g were used as experimental subjects and monitored for a two week period. […]

Question: With `CC1=C(/C=C/C(C)=C/C=C/C(C)=C/C=C/C=C(C)/C=C/C=C(C)/C=C/C2=C(C)C[C@@H](O)CC2(C)C)C(C)(C)CCC1` [BCX, β-cryptoxanthin] as the compound, how does the “Days with significant difference in blood pressure” value read?
Answer: 4, 6, 11, and 13 days
